Experimental findings from paper doi:10.1101/2020.01.13.905521 are described below.

Chains of the proteins cited; added tags and fusions are not shown.
UniProt Q99814: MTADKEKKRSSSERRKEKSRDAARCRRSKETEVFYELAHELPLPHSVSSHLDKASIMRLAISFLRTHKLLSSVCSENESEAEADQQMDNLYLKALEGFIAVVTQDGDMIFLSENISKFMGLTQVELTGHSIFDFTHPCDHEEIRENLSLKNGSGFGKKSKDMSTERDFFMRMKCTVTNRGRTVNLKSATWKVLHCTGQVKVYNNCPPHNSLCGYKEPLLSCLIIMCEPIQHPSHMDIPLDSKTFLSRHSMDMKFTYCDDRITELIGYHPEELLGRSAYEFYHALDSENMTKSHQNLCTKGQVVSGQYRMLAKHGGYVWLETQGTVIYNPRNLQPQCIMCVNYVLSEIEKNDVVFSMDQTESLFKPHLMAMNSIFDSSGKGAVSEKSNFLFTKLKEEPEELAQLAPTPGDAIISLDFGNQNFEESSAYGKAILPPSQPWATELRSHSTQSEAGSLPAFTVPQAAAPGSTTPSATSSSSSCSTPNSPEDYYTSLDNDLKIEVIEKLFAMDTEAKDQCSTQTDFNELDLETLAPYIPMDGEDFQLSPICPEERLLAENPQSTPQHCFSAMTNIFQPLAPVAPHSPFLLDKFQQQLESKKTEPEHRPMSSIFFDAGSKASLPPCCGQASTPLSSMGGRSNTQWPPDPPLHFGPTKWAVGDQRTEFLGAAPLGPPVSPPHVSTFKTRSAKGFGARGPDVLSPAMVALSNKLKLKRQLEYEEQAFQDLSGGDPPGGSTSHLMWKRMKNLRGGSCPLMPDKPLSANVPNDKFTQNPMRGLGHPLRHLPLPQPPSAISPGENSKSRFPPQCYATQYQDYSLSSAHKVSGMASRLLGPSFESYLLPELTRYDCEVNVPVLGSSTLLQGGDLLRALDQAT

For the assay, the target named is T1, folliculin (FLCN) (human (endogenous in 786-O, ACHN and HK-2)) (UniProt Q8NFG4).
T1 sequence: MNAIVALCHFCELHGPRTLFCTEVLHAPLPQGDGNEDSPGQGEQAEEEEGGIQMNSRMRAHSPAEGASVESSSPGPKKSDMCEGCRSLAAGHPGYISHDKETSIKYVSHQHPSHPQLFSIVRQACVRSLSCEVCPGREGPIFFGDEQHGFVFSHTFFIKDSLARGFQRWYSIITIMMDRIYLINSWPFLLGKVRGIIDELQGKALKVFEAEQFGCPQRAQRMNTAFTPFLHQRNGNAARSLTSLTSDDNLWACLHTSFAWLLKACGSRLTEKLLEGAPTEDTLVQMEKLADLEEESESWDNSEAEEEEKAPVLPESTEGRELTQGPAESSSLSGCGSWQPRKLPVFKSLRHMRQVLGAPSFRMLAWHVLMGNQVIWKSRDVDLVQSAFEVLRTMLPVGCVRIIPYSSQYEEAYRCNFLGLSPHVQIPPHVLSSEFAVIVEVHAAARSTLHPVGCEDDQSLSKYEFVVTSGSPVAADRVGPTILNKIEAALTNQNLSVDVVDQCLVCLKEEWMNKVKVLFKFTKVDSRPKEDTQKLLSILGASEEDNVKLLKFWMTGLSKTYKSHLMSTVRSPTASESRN
As to the kind of experiment: co-IP.

Results are given in words; binding and its absence hold for the method and conditions named. In cells and extracts the contact can be indirect. Some entries that bind do so weakly or less than the wild type.

On to HIF2α (from UniProt Q99814 1-870), for which the binding entry is listed as “binds”.
